PubChem BioAssay AID1224830, NIAID, 2016
In all, the deposit lists about 18,000 reagents; this is a part drawn at random. About 2,900 of all reagents (16%) were called active. 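Calls are made per well; low scores hint the gene aids the LPS response, high scores that it dampens it.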 Repeated entries: four replicate wells of each siRNA pool.

Test: 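Genes whose knock-down alters the TNF-alpha reporter response to LPS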 (primary screen)
Cell system: human THP-1 monocytic leukaemia cells, TNF dual-luciferase reporter clone, PMA-differentiated to macrophage-like cells
Reagent: siRNA pool against human genes, 50 nM
Timing: LPS for 4 h, given about 3 days after siRNA transfection
Conditions: bacterial LPS (TLR4 ligand), 10 ng/ml
Measured: 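Ratio of firefly to renilla light, scaled to the plate median and expressed as a robust z-score per replicate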
Reading the numbers: TNF reporter robust z-score: higher = stronger TNF reporter response to LPS
Active means: 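Each well counts as active if its z-score is over 2.8 or under -1.5; controls are left without a call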

The opening 3 entries, ahead of the listing:
| target | TNF reporter robust z-score | Call |
| --- | --- | --- |
| DDO (D-aspartate oxidase) | 1.44 | inactive |
| DDO (D-aspartate oxidase) | 1.68 | inactive |
| DDO (D-aspartate oxidase) | 1.64 | inactive |

The listing, repeating the preview:
| target | TNF reporter robust z-score | Call |
| --- | --- | --- |
| DDO (D-aspartate oxidase) | 1.44 | inactive |
| DDO (D-aspartate oxidase) | 1.68 | inactive |
| DDO (D-aspartate oxidase) | 1.64 | inactive |
| DDO (D-aspartate oxidase) | 3.41 | active |
| CCDC162P (coiled-coil domain containing 162, pseudogene) | 0.17 | inactive |
| CCDC162P (coiled-coil domain containing 162, pseudogene) | 1.16 | inactive |
| CCDC162P (coiled-coil domain containing 162, pseudogene) | 0.89 | inactive |
| CCDC162P (coiled-coil domain containing 162, pseudogene) | 1.52 | inactive |
| DPY30 (dpy-30 histone methyltransferase complex regulatory subunit) | -1.32 | inactive |
| DPY30 (dpy-30 histone methyltransferase complex regulatory subunit) | -0.14 | inactive |
| DPY30 (dpy-30 histone methyltransferase complex regulatory subunit) | -0.28 | inactive |
| DPY30 (dpy-30 histone methyltransferase complex regulatory subunit) | -0.45 | inactive |
| KLHL17 (kelch like family member 17) | -0.09 | inactive |
| KLHL17 (kelch like family member 17) | -0.25 | inactive |
| KLHL17 (kelch like family member 17) | -0.55 | inactive |
| KLHL17 (kelch like family member 17) | -1.04 | inactive |
| HGFAC (HGF activator) | 0.8 | inactive |
| HGFAC (HGF activator) | 0.33 | inactive |
| HGFAC (HGF activator) | 0.9 | inactive |
| HGFAC (HGF activator) | 0.78 | inactive |
| NOVA1 (NOVA alternative splicing regulator 1) | 1.31 | inactive |
| NOVA1 (NOVA alternative splicing regulator 1) | 0.73 | inactive |
| NOVA1 (NOVA alternative splicing regulator 1) | 0.61 | inactive |
| NOVA1 (NOVA alternative splicing regulator 1) | 1.22 | inactive |
| SNRPC (small nuclear ribonucleoprotein polypeptide C) | -1.65 | active |
| SNRPC (small nuclear ribonucleoprotein polypeptide C) | -1.46 | inactive |
| SNRPC (small nuclear ribonucleoprotein polypeptide C) | -1.79 | active |
| SNRPC (small nuclear ribonucleoprotein polypeptide C) | -1.31 | inactive |
| TMEM168 (transmembrane protein 168) | 0.73 | inactive |
| TMEM168 (transmembrane protein 168) | 0.1 | inactive |
| TMEM168 (transmembrane protein 168) | -0.06 | inactive |
| TMEM168 (transmembrane protein 168) | 0.89 | inactive |
| VAPB (VAMP associated protein B and C) | -1.05 | inactive |
| VAPB (VAMP associated protein B and C) | -0.52 | inactive |
| VAPB (VAMP associated protein B and C) | -0.9 | inactive |
| VAPB (VAMP associated protein B and C) | -0.69 | inactive |
| WWOX (WW domain containing oxidoreductase) | 0.52 | inactive |
| WWOX (WW domain containing oxidoreductase) | 2.05 | inactive |
| WWOX (WW domain containing oxidoreductase) | 0.51 | inactive |
| WWOX (WW domain containing oxidoreductase) | 1.18 | inactive |
| DCAF17 (DDB1 and CUL4 associated factor 17) | -1 | inactive |
| DCAF17 (DDB1 and CUL4 associated factor 17) | -1.13 | inactive |
| DCAF17 (DDB1 and CUL4 associated factor 17) | -0.69 | inactive |
| DCAF17 (DDB1 and CUL4 associated factor 17) | -0.63 | inactive |
| CILP (cartilage intermediate layer protein) | 0.26 | inactive |
| CILP (cartilage intermediate layer protein) | -0.33 | inactive |
| CILP (cartilage intermediate layer protein) | -0.83 | inactive |
| CILP (cartilage intermediate layer protein) | 0.75 | inactive |
